Data on 67 sequences can be found in PubChem BioAssay AID1347423 (Functional Genomics Laboratory (NCATS/FGL), 2020).

Among all 52,000 sequences or so, about 210 (0.4%) were called active.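 Rule for the calls: active = gene whose silencing raises cell survival under the drug, median off-target-corrected z-score across its silencing RNAs 2 or more; inactive = the rest.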 The list shows a part of the results.

The assay is described as follows: Resistance to Poly (ADP-Ribose) Polymerase inhibitor: Gene Identification via Genome-wide siRNA Screen. The note with it: mouse BRCA2 R2336H ES cells, olaparib, CellTiter-Glo viability; hits give high values. In a few lines:
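Mouse BRCA2 R2336H ES cells were reverse-transfected with siRNA (20 nM final), treated at 48 h with 500 nM olaparib, and read by CellTiter-Glo after 72 h. Scores: MAD-based z per siRNA, median per gene, seed off-target correction.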
(In general: Cellular ATP, detected with luciferase, serves as a proxy for viable cell number.)
As to “GGACAAUUCCAGUCAAUAATT against 2310061I09Rik”, the z-score is inactive: -1.92. Regarding GAAUGAACUGCUGAAAAAGTT against Klra16, the z-score was inactive: -0.479. Next, “GGCGGUGAUAUUCUAGAAGTT against E130119P06Rik”: inactive: -0.519; GCUUAUAGGCCUAUAUGCCTT against Inppl1: inactive: 0.179; GGUGUAUGGAUUUUAUGAUTT against Ppp6c: inactive: -1.68. Next, GGUUUGCUGAAUGUCAUUUTT against Magea2: inactive: 0.85; GGUGAGACAGAUAAAGUUCTT against Olfr1125: inactive: 0.558. Next, CCCACUGUACAUUUGUAAATT against Mpn: inactive: -0.339. For the sequence GGAUGAAACAAGUGAAGAUTT against Papola, the z-score was inactive: 1.66.

CGGUAUCUCAACUUUUACATT against Stra8: the z-score was inactive: 0.301. Turning to GGAUGGGACUUUUGAAAAATT against Cd3z, the z-score is inactive: -0.45. Turning to “GGACAUACCGAGAAGAUUGTT against 3110001D03Rik”, the z-score is inactive: 1.59. In the case of GGAAGAGGUCUUGAUCCACTT against Kelchl, the z-score was inactive: -0.841.

Regarding GCUGCUAUGACCUAUGGCATT against Sptlc2, the z-score is inactive: 0.991. In the case of CCCAAUGUCCCAACUCACATT against Baalc, the z-score was inactive: -1.48. On to GGCAAUGAGUCUGACCUCUTT against Capg, for which the z-score is inactive: 0.928.

For the sequence GCCAGAAUUUUAGCUAGUATT against Tnfaip9, the z-score is inactive: 0.328.

Regarding GGCAGAAUUUGAGCACUUUTT against Galgt2, the z-score was inactive: 1.75.

On to GGACCUGGACCUUUUAGAGTT against Vegfb, for which the z-score was inactive: 0.201.

Turning to GCUGUUGAUGUAGUUUGGUTT against Dctd, the z-score is inactive: -0.213. Next, GGUCAGAAGGUGUGUUAUATT against Rad52: inactive: 2.76.

Turning to GGCAUUUGAAGAUGUUUCUTT against Hmgb3, the z-score was active: 1.56. Then GGUAGAAUUACUGUGUACUTT against Slc26a4, with inactive: -0.482; and GGACAAGUCGAGUUUCAAGTT against Zfp503, with inactive: 1.1. Then CCAAUGAAACAUUUACUUCTT against Stmn4, with inactive: 0.62; and GGAAACCAGAAAAACUGAATT against Parg, with inactive: 0.204; and GGCUGAGGAGUGGUACUUUTT against Src, with inactive: -1.18.

For GGUUAAGUUCCUCUGGAACTT against Pnliprp2, the z-score is inactive: -1.59. As for “GGUACUUCAUCGAUUCAGCTT against 3110024A21Rik”, the z-score is inactive: 0.263. With GCAUUGAGCUCGACUUCUGTT against Cpa3, the z-score was inactive: -0.0264.

Turning to “GCCAGGUGUGGUGACUCAUTT against 1810034M08Rik”, the z-score is inactive: -0.481.

Regarding GCUUGUCAUUCUUGUUGUATT against Olfr348, the z-score is inactive: 1.17. Next, GGAAUGGAAAAACAAAAAGTT against Matp: inactive: 0.0244.

As to CCUGUAAAGUUCUUGUCGGTT against Ccrl2, the z-score is inactive: 0.716. Turning to GGUGACCAAAAAAGCUUUATT against Pax9, the z-score was inactive: -0.0814.

Take CCUGAACAUGAGUUAAAAGTT against Lmo4: the z-score is inactive: 1.56. As to GGUGUACGAUCUGACCAAGTT against Cyb5, the z-score was inactive: -0.141. Next, “GGCACCUUUCAGAAAUCCCTT against 4931406B18Rik”: inactive: 0.474. Then GGCUACUUUUUGGAACAUCTT against Uqcrc1, with inactive: -1.18; and GGCUGUUCGAGCUAUCCACTT against Ddefl1, with inactive: -0.809. Next, “GCUGGAUAUUUCUAAGUAUTT against 4930430A15Rik”: inactive: 0.962.

On to GGCAUCCAAUCCUGUGGAGTT against Bcl11a, for which the z-score is inactive: -0.311. GGACUUCGAAAGUUUAUCCTT against AI449705: the z-score is inactive: 1.93. Next, “CCUUGUAUGGAGAUAUUCCTT against 4632417K02”: inactive: -1.8; “GCUUGUCGAGAAACUCUGGTT against A330021E22Rik”: inactive: 0.659. Next, GGAGUUUGACUCAAUAUCATT against Napb: inactive: 0.653; CCGUUUAACUUGGGCUGAUTT against Reg1: inactive: 0.779; GGCAUUCCCUGAAUAUCGUTT against Gpx2: inactive: 0.731. Regarding GGUACAGGAAACUCAAAUATT against Lrrc4, the z-score is inactive: 0.527. In the case of “GGUUGAAUUAUACACAAAGTT against 4930425N13Rik”, the z-score is inactive: -0.749. Then “GCCACCUUGUUUCUCGAACTT against 1810008A18Rik”, with inactive: 0.925; and GGCAGUCAGACUUAGAGACTT against Dqx1, with inactive: -0.303. Regarding “GGUUUUUGUCACUAUAAGCTT against 4921513B05Rik”, the z-score was inactive: 2.66. Next, CCAAAGCCUGAAAUGGUGGTT against Cxcr4: inactive: 0.733; GGUAUAGAAUGUUUGAUCATT against AA792894: inactive: 0.00502; GCGUGCAGCCCUCAAUGAATT against Ppp2r5b: active: 1.44. Next, GGGACUCGGGCAGUAUUCATT against Tgm5: inactive: 3.09; GGCAAAGACAAGAAGCUGUTT against Drap1: inactive: 1.55.

Regarding GGAGACUGAGGAAGAAUCUTT against Atcay, the z-score was inactive: 0.00927. Regarding CCUUUCGGACAAAAUAUGUTT against Vnn3, the z-score was inactive: 0.459. Then “GCAGUGCACGGAUAACUUCTT against 9430093N24Rik”, with inactive: 2.3. Then GAUGGACAGGUUCAUGAUUTT against BC058638, with inactive: -1.43; and GGCCUAUGAAAAGUGGCGUTT against Dpysl3, with inactive: 0.378; and “GGGAGAGUCUUGGCAACUUTT against 1500005I02Rik”, with inactive: -1.79. Turning to GGAAGUUCAAGACAUUGUUTT against Rabgef1, the z-score was inactive: 0.527. Next, GGGCAUCAGCAUUUGGUCATT against Pparbp: inactive: 1.17; “GGAACUGAAGCUCCUACAATT against 6530418L21Rik”: inactive: -2.7.
